Experimental data from article doi:10.1101/526152.
No constants are given. Whether binding was seen depends on the method and setting. Binding seen in cells or lysates may run through a third protein. Here binding means that the protein was enriched with, or labelled near, the bait; the list need not be complete.

By UniProt entry, the sequences of proteins in these tests, tags left out. Where a name states a change or a piece, a line headed by the entry shows the natural chain unless it says otherwise.
UniProt Q96QB1: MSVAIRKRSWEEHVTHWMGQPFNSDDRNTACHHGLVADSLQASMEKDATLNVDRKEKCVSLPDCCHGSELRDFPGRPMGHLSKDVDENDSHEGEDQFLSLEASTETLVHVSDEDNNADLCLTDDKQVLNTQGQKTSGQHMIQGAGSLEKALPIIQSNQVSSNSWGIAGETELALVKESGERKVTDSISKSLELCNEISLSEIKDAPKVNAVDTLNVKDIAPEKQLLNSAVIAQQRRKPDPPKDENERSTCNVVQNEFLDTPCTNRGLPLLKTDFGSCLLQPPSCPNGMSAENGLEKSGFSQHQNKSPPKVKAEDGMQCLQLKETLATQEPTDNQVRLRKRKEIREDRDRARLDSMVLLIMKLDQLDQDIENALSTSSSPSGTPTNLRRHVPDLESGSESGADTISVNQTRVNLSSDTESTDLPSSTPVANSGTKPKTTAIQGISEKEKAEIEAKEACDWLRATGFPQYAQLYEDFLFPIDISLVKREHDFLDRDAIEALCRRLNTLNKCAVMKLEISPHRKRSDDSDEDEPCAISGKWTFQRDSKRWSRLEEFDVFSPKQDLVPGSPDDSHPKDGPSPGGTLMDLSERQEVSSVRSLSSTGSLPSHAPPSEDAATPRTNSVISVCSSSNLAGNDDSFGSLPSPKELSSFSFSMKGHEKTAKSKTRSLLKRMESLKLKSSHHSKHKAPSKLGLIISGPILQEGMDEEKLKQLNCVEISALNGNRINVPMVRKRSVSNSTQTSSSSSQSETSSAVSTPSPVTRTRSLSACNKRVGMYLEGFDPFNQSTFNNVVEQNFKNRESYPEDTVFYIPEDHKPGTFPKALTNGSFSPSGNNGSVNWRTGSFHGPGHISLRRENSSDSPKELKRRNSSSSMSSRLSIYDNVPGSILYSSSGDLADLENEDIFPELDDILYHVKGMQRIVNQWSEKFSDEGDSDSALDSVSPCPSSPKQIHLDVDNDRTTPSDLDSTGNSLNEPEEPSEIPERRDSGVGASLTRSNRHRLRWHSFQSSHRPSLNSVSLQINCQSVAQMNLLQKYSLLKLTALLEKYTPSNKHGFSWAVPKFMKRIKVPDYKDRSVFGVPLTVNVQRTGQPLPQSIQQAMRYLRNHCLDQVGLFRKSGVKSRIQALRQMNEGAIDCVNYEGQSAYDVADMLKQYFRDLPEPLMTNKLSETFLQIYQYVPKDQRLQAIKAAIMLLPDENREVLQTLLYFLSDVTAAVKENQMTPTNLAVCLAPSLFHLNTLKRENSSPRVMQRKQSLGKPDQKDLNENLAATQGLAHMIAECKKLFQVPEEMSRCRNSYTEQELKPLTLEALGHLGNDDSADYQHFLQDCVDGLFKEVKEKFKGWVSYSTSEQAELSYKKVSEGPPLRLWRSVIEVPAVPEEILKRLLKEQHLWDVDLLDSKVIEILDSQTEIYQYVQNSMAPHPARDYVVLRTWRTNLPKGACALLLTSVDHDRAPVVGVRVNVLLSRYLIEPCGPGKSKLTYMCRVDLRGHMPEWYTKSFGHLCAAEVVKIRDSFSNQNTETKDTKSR
UniProt P46940: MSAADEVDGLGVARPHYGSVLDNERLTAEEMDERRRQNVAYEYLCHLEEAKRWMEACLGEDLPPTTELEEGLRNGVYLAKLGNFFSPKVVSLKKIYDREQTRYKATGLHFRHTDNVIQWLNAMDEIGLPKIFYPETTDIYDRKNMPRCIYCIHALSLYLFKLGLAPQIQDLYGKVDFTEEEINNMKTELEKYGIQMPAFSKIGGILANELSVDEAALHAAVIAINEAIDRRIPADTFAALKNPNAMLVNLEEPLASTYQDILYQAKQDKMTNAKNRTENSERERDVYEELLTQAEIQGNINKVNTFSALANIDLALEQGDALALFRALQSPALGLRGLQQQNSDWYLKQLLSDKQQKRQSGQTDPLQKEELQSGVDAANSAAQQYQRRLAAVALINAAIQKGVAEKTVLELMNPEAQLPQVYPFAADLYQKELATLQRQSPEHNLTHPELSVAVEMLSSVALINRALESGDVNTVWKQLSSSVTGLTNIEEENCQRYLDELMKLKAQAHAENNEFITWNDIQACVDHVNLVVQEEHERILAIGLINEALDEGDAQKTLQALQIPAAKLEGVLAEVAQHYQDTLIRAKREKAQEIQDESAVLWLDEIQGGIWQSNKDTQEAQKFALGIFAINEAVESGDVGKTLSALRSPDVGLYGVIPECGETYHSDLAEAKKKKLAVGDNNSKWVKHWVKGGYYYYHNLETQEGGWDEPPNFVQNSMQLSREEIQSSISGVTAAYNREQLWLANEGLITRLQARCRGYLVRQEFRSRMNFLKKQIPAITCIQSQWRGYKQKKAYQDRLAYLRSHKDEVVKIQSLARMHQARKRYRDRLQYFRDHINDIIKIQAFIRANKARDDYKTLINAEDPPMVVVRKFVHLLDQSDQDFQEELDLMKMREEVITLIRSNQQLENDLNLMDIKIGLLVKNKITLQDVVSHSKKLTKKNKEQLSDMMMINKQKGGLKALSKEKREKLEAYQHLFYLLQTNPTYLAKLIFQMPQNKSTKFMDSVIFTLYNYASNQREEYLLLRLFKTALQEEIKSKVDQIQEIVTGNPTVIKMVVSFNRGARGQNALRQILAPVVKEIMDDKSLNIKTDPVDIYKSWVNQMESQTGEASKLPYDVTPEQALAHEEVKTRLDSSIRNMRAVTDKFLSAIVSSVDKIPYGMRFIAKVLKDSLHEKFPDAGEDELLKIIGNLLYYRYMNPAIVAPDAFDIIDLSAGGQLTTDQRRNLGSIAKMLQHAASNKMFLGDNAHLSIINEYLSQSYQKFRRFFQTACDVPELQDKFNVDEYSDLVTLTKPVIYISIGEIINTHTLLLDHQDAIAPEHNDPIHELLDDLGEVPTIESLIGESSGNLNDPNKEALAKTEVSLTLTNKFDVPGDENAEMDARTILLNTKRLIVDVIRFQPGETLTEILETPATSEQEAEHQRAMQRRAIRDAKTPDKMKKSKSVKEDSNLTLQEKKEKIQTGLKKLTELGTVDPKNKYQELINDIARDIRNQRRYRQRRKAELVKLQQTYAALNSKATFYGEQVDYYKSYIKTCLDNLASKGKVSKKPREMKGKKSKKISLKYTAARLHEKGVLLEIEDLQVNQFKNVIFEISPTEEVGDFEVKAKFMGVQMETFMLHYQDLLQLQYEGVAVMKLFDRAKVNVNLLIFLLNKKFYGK

Target: p122RhoGTPase-activating protein (GAP)/deleted in liver cancer-1 (p122RhoGAP/DLC-1) (human (endogenous in skin fibroblasts)) (UniProt Q96QB1)
Test: affinity purification with mass spectrometry

binding: binds
Substance: IQ motif-containing GTPase-activating protein 1 (IQGAP1) (from UniProt P46940 1-1657)
